# From publication PMC3048431
# Sequences of proteins named here, by UniProt entry; tags and fusion partners are left off. Residues count along the entry.
# UniProt A2A884, whole entry: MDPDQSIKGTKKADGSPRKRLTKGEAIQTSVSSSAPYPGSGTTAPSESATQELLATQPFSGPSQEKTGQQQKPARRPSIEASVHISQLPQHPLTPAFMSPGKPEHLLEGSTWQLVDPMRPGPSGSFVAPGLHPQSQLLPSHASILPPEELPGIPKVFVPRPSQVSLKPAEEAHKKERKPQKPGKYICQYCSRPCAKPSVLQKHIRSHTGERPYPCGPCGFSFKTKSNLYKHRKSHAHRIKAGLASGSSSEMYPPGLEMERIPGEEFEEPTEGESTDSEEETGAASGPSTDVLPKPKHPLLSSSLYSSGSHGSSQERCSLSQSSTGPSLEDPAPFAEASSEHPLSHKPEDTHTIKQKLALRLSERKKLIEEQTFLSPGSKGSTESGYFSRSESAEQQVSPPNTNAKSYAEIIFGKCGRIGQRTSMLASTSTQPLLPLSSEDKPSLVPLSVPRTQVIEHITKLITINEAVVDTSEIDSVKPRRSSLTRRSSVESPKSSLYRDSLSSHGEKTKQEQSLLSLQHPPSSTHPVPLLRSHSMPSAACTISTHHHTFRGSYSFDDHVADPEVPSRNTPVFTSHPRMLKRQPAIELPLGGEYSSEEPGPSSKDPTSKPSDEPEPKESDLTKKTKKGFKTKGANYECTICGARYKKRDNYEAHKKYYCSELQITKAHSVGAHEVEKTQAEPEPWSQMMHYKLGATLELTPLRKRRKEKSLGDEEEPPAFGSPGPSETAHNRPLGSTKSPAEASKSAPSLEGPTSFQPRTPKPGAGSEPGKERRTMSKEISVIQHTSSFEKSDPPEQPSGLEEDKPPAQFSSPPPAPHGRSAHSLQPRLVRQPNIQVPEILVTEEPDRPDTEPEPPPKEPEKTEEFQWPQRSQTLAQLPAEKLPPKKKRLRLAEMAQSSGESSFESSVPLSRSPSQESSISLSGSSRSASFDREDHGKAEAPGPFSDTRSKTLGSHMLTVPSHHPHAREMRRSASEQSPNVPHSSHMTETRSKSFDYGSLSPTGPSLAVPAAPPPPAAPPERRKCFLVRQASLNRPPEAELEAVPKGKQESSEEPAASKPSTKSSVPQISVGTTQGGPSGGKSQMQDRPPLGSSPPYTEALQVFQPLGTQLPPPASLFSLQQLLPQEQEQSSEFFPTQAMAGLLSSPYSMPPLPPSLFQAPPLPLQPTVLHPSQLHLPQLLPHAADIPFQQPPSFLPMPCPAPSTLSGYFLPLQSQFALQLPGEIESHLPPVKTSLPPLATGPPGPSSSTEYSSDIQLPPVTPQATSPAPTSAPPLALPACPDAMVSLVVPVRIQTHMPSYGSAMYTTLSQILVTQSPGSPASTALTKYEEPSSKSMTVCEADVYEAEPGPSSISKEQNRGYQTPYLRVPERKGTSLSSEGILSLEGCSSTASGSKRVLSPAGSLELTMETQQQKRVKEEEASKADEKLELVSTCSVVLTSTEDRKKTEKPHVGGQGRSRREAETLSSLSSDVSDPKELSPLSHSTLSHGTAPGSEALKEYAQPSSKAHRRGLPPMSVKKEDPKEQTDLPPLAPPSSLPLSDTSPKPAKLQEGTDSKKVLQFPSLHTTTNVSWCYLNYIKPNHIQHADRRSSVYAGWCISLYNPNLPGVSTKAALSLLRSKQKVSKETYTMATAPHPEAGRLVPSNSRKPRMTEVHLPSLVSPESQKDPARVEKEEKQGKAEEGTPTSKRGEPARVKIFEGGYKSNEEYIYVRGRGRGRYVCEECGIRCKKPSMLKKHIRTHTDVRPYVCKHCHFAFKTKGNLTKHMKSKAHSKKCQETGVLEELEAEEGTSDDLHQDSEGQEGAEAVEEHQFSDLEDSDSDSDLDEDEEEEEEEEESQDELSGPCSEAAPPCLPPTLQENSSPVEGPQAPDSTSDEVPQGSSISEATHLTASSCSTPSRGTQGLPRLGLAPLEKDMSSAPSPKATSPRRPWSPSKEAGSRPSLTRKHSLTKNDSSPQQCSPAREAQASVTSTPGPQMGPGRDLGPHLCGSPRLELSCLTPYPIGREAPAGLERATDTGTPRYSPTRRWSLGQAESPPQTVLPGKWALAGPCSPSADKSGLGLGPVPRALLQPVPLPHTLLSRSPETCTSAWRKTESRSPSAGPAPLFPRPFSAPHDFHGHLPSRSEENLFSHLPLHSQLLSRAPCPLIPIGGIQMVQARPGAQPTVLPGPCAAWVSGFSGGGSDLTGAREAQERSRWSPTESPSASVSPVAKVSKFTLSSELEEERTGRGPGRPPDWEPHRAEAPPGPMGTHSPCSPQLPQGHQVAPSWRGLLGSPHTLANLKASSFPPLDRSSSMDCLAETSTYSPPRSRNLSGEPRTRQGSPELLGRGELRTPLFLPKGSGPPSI
# UniProt A2A884, 106-2013: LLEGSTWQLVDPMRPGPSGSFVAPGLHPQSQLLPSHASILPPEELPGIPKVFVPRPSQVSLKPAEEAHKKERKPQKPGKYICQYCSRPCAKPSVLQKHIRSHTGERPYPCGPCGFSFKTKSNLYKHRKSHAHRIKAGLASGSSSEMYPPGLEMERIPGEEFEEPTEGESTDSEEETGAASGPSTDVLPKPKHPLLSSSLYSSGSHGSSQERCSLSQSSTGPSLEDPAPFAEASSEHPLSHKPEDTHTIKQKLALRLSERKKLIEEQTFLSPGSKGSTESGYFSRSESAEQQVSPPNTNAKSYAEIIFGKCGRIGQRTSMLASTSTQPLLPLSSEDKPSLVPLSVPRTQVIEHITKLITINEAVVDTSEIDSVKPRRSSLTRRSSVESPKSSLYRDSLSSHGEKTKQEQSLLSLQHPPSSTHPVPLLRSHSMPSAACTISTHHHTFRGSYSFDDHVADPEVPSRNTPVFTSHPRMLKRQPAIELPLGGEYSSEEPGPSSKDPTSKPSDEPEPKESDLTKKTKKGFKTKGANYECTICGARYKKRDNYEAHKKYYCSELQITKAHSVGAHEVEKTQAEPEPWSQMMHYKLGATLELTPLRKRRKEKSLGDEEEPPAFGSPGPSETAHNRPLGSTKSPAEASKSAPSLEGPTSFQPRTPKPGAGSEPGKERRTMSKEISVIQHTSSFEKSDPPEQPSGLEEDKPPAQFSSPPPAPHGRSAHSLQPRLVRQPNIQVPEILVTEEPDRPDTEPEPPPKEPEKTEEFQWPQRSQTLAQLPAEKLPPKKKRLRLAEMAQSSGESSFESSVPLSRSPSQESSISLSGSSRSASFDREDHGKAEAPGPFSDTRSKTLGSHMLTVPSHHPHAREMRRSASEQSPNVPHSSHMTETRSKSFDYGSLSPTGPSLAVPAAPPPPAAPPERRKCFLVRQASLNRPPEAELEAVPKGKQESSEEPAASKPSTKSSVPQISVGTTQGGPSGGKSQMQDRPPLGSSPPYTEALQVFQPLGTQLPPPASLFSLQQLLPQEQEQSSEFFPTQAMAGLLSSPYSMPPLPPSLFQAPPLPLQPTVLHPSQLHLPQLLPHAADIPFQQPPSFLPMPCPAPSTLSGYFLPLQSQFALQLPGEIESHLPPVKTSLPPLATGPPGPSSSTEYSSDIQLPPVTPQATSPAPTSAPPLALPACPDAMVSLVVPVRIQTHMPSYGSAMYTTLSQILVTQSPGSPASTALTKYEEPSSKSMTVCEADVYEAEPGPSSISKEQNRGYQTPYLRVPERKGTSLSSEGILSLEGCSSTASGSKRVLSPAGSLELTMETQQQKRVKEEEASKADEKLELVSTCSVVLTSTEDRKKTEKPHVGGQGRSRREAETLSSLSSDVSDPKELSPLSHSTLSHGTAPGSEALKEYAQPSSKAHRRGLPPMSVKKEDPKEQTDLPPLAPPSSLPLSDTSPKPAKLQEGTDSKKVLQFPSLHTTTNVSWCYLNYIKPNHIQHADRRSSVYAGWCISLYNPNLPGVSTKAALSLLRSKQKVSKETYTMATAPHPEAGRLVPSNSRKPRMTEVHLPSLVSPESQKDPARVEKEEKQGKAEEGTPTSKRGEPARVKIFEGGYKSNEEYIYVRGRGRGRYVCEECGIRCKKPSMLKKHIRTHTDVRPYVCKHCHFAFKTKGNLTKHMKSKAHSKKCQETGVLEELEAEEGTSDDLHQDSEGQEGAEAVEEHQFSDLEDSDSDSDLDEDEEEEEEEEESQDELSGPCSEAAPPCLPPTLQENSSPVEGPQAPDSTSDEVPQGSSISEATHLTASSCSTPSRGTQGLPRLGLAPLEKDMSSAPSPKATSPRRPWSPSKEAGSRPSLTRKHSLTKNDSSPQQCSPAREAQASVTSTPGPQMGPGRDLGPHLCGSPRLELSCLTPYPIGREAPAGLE
# Construct, isoform or probe ends are uncertain for at least one entry. Where cells or extracts were used, other partners may take part.
# What was measured:
# ZAS3 endogenous = ZAS3 endogenous (UniProt A2A884); experiment: EMSA with antibody supershift (complex abolished); details: nuclear extract 2-5 ug, complex C2, protein and probe incubated 10 min, then ZAS3 antibody 15 min, pH and temperature not given (cites ref 36), protein in an extract, label: 32P-dCTP (Klenow)
# [1] = target: ZAS3 recombinant (aa 106-2013) (UniProt A2A884); experiment: EMSA with antibody supershift (complex abolished); details: nuclear extract 2-5 ug, complex C4 only in ZAS3 transfectants, protein and probe incubated 10 min, then ZAS3 antibody 15 min, pH and temperature not given (cites ref 36), protein in an extract, label: 32P-dCTP (Klenow)
sequence,measurement,setting,value
TTCTGGGGAAGTCCAGTGCTCACATGACCCA (double strand) [mouse TRAP proximal enhancer probe (-55 to -26)],binding result,ZAS3 endogenous,binds
same,binding result,[1],binds
